Measured values: patent US8178077B2, “Drug development target protein and target gene, and method of screening” (Reverse Proteomics Research Institute Co., Ltd., priority 2004, dated 2012)

Biological target: T1, FLJ39196 clone-derived protein (human neurocalcin δ) (Homo sapiens, UniProt P61601)
T1 construct: A human full-length cDNA clone was expressed as a protein with an N-terminal His tag; His tag (N); made in house; host or cells: Escherichia coli BL21star(DE3)pLysS (pDEST17 Gateway expression plasmid)
Assay: SEC/MS interaction analysis (size exclusion spin column and mass analysis) with FLJ39196 clone-derived protein
Assay type: binding
Excerpt: To analyze the interactions between commonly used drugs and proteins expressed from human full-length cDNA clones while keeping both the proteins and the compounds in non-modified, non-immobilized state, size exclusion chromatography (SEC) and mass analysis were used in combination (FIGS. 1, 2). The specific procedures are shown below.
The compound-protein mixture prepared in step 1 was subjected to chromatography using an SEC column, the compound and the protein were separated by SEC, and the compound that interacted with the bound compound or protein contained in the protein fraction was analyzed using a mass analyzer.
Protein concentrations were measured using BCA Protein Assay (PIERCE), in consideration of the purity calculated by SDS-PAGE.
Mass analysis was performed using LCQ DECA XP (Thermoelectron) or Q-TOFmicro (Micromass), equipped with an ESI probe. The LC pump used was Agilent 1100 (Yokogawa Analytical Systems), and the autosampler used was HTC-PAL (CTC Analytics) equipped with a cooling stacker.
In the SEC method using 384-well spin columns, Unifilter 100 (Whatman), packed with 10 μL (dry volume) of Bio-Gel P6 (BIO-RAD) and swollen with milliQ water, was used as the SEC column. 13.3 μL of a protein-free reference standard or a 25 μM protein standard and 0.7 μL of a multiplied liquid comprising 25 μM of each pharmaceutical compound (5% DMSO aqueous solution) were mixed; 9 μL of this mixture was aliquoted into the SEC spin columns. The SEC spin column was mounted on an acetonitrile-aliquoted 384-well U-bottom plate and centrifuged; the SEC spin column filtrate, which is a protein fraction, was retrieved in 50% acetonitrile. The protein precipitate produced by the acetonitrile was removed via centrifugation and filtration for deproteinization; the resulting filtrate was concentrated by centrifugation and re-dissolved in 10 μL of 50% methanol to obtain a mass analysis sample. The mobile phase supplied to the mass analyzer was 0.1% formic acid/50% methanol solution in the positive ion mode, and 0.1% ammonia/50% methanol solution in the negative ion mode; these mobile phases were used at a flow rate of 40 μL/min. 2-μL of mass analysis samples were injected using an autosampler at 2-minute intervals; the mass spectral intensity of the compound was measured to obtain the spectral intensity of the pharmaceutical compound contained in the SEC spin column filtrate (protein fraction eluted from SEC).

interaction between the protein and the compound (judgement from spectrum intensity) (intensity increased depending on the doses of both compound and protein): dose-dependent interaction
spectral intensity of the compound in the SEC spin column filtrate (protein fraction) (protein 0 μM (protein-free reference), compound 12.5 μM): 31597
spectral intensity of the compound in the SEC spin column filtrate (protein fraction) (protein 0 μM (protein-free reference), compound 25 μM): 68345
spectral intensity of the compound in the SEC spin column filtrate (protein fraction) (protein 0 μM (protein-free reference), compound 62.5 μM): 604452
spectral intensity of the compound in the SEC spin column filtrate (protein fraction) (protein 5 μM, compound 12.5 μM): 247204
spectral intensity of the compound in the SEC spin column filtrate (protein fraction) (protein 5 μM, compound 25 μM): 110996
spectral intensity of the compound in the SEC spin column filtrate (protein fraction) (protein 5 μM, compound 62.5 μM): 2703426
spectral intensity of the compound in the SEC spin column filtrate (protein fraction) (protein 10 μM, compound 12.5 μM): 569000
spectral intensity of the compound in the SEC spin column filtrate (protein fraction) (protein 10 μM, compound 25 μM): 597628
spectral intensity of the compound in the SEC spin column filtrate (protein fraction) (protein 10 μM, compound 62.5 μM): 3448280
spectral intensity of the compound in the SEC spin column filtrate (protein fraction) (protein 25 μM, compound 12.5 μM): 1285142
spectral intensity of the compound in the SEC spin column filtrate (protein fraction) (protein 25 μM, compound 25 μM): 2719479
spectral intensity of the compound in the SEC spin column filtrate (protein fraction) (protein 25 μM, compound 62.5 μM): 7108230
SMILES: CC(C)c1c(C(=O)Nc2ccccc2)c(-c2ccccc2)c(-c2ccc(F)cc2)n1CC[C@@H](O)C[C@@H](O)CC(=O)O [atorvastatin]
